# According to PubChem BioAssay AID1347426 (Functional Genomics Laboratory (NCATS/FGL), 2020):
# In all, about 31,000 sequences went through this assay and about 1,400 (4.5%) were called active.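 The calls were made as follows: active = median seed-adjusted z-score above 1 or below -1; inactive = the rest.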 The list shows a part of the results.
# Experiment: Novel Modifiers of Survival Motor Neuron (SMN) Protein: Gene Identification via Genome-wide siRNA Screen;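 also: luminescence tracks full-length SMN protein made from the SMN2 reporter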
# Details: HEK293T SMN2-luciferase reporter, siRNA knockdown, 72 h; actives lie on both sides
# How it was run: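 HEK293T cells stably expressing an SMN2 splicing/cDNA-luciferase reporter were reverse-transfected with a druggable-genome siRNA library and read by luminescence at 72 hours; hits defined by MAD score above 1.0 or below -1.0.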
row,Sequence,median seed-adjusted z-score
1,GGACCUUAAAGACGAGAAATT against DDX10,inactive: -0.968
2,CCGCUGAGGUGACAACAAATT against XRCC5,active: -1.11
3,CCUAUGACAUGUUUCCAGATT against MAP4K2,inactive: -0.439
4,GAGCAAGGCAUGGAACUAATT against ATP6V0A4,inactive: -0.141
5,GGACUCGCAUUUAUUCACATT against ICK,inactive: 0.638
6,AAAUUAGAGUGAACAAGAATT against NFIC,inactive: 0.72
7,GAAUCAAUGGACAUGAACATT against CYP2C9,inactive: 0.246
8,GAUUUUGACUAUCUUCUUATT against CD200R1,inactive: 0.0679
9,GAAGCAUAUCUAUGACUAUTT against ARPM1,inactive: -0.0251
10,AGAUGUUCUGAGGCUGAUATT against OASL,active: 1.02
11,CUAUAACUGUGAGCCGGAATT against MST101,inactive: -0.293
12,GGAUAAGCUUUAUGAGCGATT against PURB,inactive: 0
13,GCUCGACUGUGCAAUAACATT against SART3,inactive: 0
14,GAUGCUGGUUGGUUCGAUATT against MFSD4,active: -1.89
15,GCCUAAGAAAAUUCGAGUATT against SYNJ1,inactive: 0
16,CUAUCGUGGUGGAUAUGAATT against SYNCRIP,inactive: -0.192
17,GGGCAGUGGCUAUAGCAUATT against ACER1,inactive: 0.308
18,GAAUAUCGAAAGGAUGAAATT against CRY1,inactive: 0.0564
19,ACAGAAACGGUCCUCUUUATT against PROKR2,inactive: 0.328
20,GCAACGAUUUUAGAGGUUATT against ADAM10,inactive: 0.14
21,GGAUGUGGUAGUACAGAAATT against PSMD2,active: -1.44
22,CCACUGGGCUAAUUCUACATT against ALPPL2,inactive: 0.331

row,Sequence,median seed-adjusted z-score
1,GACUUGCCCUUACUGCAAATT against RNF175,inactive: 0.127
2,AGGACGAGAUGUCCACGAATT against PKP3,inactive: 0.205
3,CAAGCAUGGUCUUUCUACUTT against TUBB2A,active: 1.03
4,CCAUGAACGGUUACCAGAATT against UBTF,inactive: 0.942
5,GCAAAUGGGAGGUUGGAAATT against ZIK1,inactive: -0.0627
6,GAGACUGACUGCGUACUUATT against PAPOLA,inactive: 0
7,GUGCACUAAUCAUACAAUATT against CD1B,inactive: -0.407
8,UGAAGAUCAUUAACCUGAATT against SCN2B,inactive: -0.65
9,CUAUCUUCGGUUGAACAAATT against DNAJC12,inactive: 0.248
10,AGCACUUCAUGACAGGCUATT against GLT6D1,inactive: 0.145
11,GAUCGUCUGCUGAAUACAATT against NASP,inactive: 0.133
12,CCAUCAAUGCGGCUCAUGUTT against TUFM,active: 1.07
13,CAAAGGAGGUUUUCCGGAATT against TOP1MT,inactive: 0.159
14,CACCCUAGUUCCUCCGGUATT against CD99,inactive: 0
15,CCGAGGACGAAAACUUGUATT against NDUFB11,inactive: 0.014
16,CCCUAAUUCUGAUAUCGUATT against CLPX,inactive: -0.0436
17,GCUUUAGCCUGAAGUCAAATT against HKR1,inactive: -0.358
18,GAGCGAUAAUUGUGAGGAUTT against TF,inactive: 0.192
19,AAGUCAUUUUACAACGAAATT against SLC2A7,inactive: -0.0337
20,CUUCUGUACCCAUCAGUAATT against SARS,inactive: 0.377
21,GACCCGAGGUGUUUUCUGATT against C1RL,inactive: -0.148
22,CGGUUCCGCUGAGAUCAGATT against AATK,inactive: -0.621

row,Sequence,median seed-adjusted z-score
1,CUCUCACCGUUUCCACAAATT against EHMT1,inactive: 0.00857
2,CAAAAACAGCGUACAUCUATT against HECTD2,inactive: 0.405
3,GACCCACUCUUGAAAGACATT against ZNF304,inactive: -0.44
4,GAGAAUUUGUGAAUCUUCATT against RNF138,inactive: 0.265
5,CAUUCAAGAUGACUGUUCUTT against HTR3D,inactive: 0.776
6,CCUCCGCACUGAGAGAGAATT against ZFPL1,inactive: -0.072
7,GCAGAUUAUUUGCAAGCGATT against ULK2,inactive: -0.0393
8,UCUCAGUUGUUAAAAGUAUTT against RHOF,inactive: 0.0711
9,GACGGACAUUUGAUAAACATT against SP3,inactive: -0.0943
10,CAACACCUCUUACGAUAAATT against ZNF638,inactive: 0.63
11,GUAGUACCCGUCUUCCAGATT against PIGH,inactive: -0.327
12,CGUUCUCGCCCGCAAUUUATT against TCEAL1,inactive: -0.263
13,GGUUUGUGGUGGAAGAUUATT against PLCD3,inactive: 0.228
14,GAGUAUUGAUGAUAUGUUATT against RAD9B,inactive: 0.0879
15,CAACGAUCCCUGUACCAGUTT against GABBR2,inactive: -0.038
16,GUAGCUUCCCGGUUAAGUATT against NUMB,inactive: -0.599
17,GAAUUAUGCUACUCGAGAATT against EIF3A,inactive: -0.689
18,GGUCUGUACCAGUCUAUAATT against RFESD,inactive: -0.503
19,CCAUCACCUCGCUAAAGAATT against RAD54L,inactive: -0.393
20,GGCUCUUAAUUAUUAUCUUTT against GHR,inactive: 0.273
21,GGGAUUCCAUUGACCAGAATT against PLCG2,inactive: 0
22,CCACAAUCCUUGACAACGATT against SLC1A1,inactive: 0.0967

# Part of the list above, reformatted.
row	Sequence	median seed-adjusted z-score
19	CCAUCACCUCGCUAAAGAATT against RAD54L	inactive: -0.393
20	GGCUCUUAAUUAUUAUCUUTT against GHR	inactive: 0.273

# Additional records follow.

row,Sequence,median seed-adjusted z-score
1,GAGCAUUAUGUUACACCAATT against TTC6,inactive: 0.234
2,GAAAGAUACUGCGUGAAGATT against SLC25A13,inactive: 0.00924
3,CUGUCACUGUUGCGCAUGATT against CYP2A6,inactive: 0.117
4,GGGACAACAUGGACUAUGUTT against TRIM41,inactive: -0.164
5,GAGCCGAUUUUUAAGUCAATT against ATR,inactive: -0.217
6,GCAAGACAAGUGUCGGGAATT against HSPA6,inactive: 0.364
7,GGAUUAUGAAGAAUGGAAATT against ORC6L,inactive: 0
8,GGAUCCUGUACGACACGUATT against GAMT,inactive: -0.161
9,UGCAUUGACUGGAACCGUATT against PADI1,inactive: 0
10,GUAACAUUGUUAUCCGUUATT against IFIH1,inactive: 0.419
11,GGAGCAAUACAGUGACAUUTT against PSMC3,inactive: -0.701
12,CAACUUAACUUACAUCAGATT against ZNF461,inactive: 0.0877
13,GGAGCAUACAGAACGGACATT against SIPA1L3,inactive: 0
14,GGCCUUUACUGGAUAUGAUTT against LINGO2,inactive: 0.123
15,GGGAAUGACUGGAAGACGATT against TTF1,active: 1.76
16,GUGUAUGCCCGAGAAAUGCTT against VSX1,inactive: -0.91
17,AGACCAUGACCGAUACCUATT against CCR7,inactive: 0.244
18,CCACAGGUUUUGCAAGAAUTT against RAB36,inactive: -0.348
19,GGCUUUCUCCUAUAUCUGUTT against NUMBL,inactive: -0.139
20,GAUGUAACCUCAUUCAGCATT against ZNF211,inactive: -0.173
21,GAACAUGGGUGAUCGGUUUTT against LCMT1,inactive: 0.821
22,CGUCCGAUUUGGGUCUGAUTT against PTHLH,inactive: 0.00556

row,Sequence,median seed-adjusted z-score
1,CCAGGAGAAAUAUAAGUCATT against ZNF627,inactive: 0.204
2,GGAGUUUUAUGGACGAGGATT against NENF,inactive: -0.778
3,CAACUUCACGGACUUAACATT against KYNU,inactive: 0.00735
4,GCCUUGCUCCGAACCUUCATT against OAZ1,inactive: 0.144
5,GGAUCGUAAUGCAUUUCGATT against EFCAB1,inactive: -0.719
6,GCAGGGUCCUAUUUAUAGATT against TMLHE,inactive: -0.241
7,GCAAAUCGUUAAGUAUGUUTT against ITGA4,inactive: 0
8,CCAAAACAAUUGACCCUAATT against MSI1,inactive: -0.806
9,GACAGAAGUUUGUACGGUUTT against LGI3,inactive: -0.0189
10,GCCUACUGUUCUGACAUUUTT against ABCG1,inactive: -0.609
11,CGAUUGAUCGUGGAGAUUATT against PCMTD1,inactive: 0.0312
12,GCACUGUGCUCGGAAGUUATT against GLS2,inactive: -0.793
13,GGAACCCUGUCAGCAGAAATT against SLAMF7,inactive: -0.478
14,CGACUACAGCUACUACCAATT against RBM10,inactive: -0.0114
15,GGACCUCAUUAAUGAGUUATT against JUB,inactive: -0.0898
16,GGAACGAUGAGAACGGCAATT against AACS,inactive: 0.232
17,GCACGCUGAUCGCCAUCUUTT against ONECUT3,inactive: -0.653
18,GGAUUUGGAGGACUCCGUATT against PRKAB2,inactive: 0.17
19,GGAUCUGCAUAGUGACCAATT against PSMB1,inactive: -0.35
20,CCAGCACGCCCACAAAGAATT against EDAR,inactive: 0.137

# Individual results from the list:
# Entry for GCAAAUCGUUAAGUAUGUUTT against ITGA4 under median seed-adjusted z-score: inactive: 0
# Entry for CGACUACAGCUACUACCAATT against RBM10 under median seed-adjusted z-score: inactive: -0.0114
